Library screen at single concentrations

Amino acid sequences for entries named in this document (tags omitted). Residues count along the entry.
UniProt Q4DA54, 1-478: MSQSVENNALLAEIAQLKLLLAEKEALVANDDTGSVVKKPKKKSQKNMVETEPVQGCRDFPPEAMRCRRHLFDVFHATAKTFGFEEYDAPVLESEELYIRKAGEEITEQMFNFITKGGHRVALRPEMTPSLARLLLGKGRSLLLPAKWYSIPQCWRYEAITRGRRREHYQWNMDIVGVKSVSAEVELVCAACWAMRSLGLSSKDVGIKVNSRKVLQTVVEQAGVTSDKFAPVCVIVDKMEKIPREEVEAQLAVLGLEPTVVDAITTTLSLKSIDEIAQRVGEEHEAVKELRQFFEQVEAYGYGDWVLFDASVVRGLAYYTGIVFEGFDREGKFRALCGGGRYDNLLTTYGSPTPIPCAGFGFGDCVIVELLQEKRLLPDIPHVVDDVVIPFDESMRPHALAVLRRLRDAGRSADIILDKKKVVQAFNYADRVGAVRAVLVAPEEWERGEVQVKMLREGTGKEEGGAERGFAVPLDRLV
UniProt A4I591, 1-473: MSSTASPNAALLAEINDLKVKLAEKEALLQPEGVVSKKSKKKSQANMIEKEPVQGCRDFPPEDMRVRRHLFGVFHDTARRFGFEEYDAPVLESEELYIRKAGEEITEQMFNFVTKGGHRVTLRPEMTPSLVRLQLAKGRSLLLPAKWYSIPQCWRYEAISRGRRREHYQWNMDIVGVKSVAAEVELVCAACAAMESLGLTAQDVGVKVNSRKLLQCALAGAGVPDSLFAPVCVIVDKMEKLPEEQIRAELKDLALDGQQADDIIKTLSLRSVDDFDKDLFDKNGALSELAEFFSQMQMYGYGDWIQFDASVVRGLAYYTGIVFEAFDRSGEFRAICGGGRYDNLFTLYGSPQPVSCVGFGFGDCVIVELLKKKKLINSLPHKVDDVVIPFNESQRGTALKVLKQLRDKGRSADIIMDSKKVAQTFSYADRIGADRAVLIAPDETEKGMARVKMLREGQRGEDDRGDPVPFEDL
UniProt Q8IDJ8, 1-583: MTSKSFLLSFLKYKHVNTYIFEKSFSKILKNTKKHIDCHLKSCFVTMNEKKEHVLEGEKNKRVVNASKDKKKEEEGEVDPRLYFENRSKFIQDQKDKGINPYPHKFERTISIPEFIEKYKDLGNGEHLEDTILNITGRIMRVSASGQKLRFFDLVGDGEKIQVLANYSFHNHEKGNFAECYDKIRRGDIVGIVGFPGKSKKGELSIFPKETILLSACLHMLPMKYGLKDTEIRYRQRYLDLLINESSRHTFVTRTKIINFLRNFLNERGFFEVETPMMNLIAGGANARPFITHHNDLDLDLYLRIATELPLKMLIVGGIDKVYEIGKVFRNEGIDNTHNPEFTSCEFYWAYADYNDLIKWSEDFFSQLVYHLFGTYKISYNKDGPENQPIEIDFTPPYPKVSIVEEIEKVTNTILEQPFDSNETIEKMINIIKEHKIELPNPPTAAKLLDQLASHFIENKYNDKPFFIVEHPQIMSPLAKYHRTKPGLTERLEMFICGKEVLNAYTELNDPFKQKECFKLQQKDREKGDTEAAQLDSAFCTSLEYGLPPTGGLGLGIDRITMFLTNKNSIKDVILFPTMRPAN

A: 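Enzyme assay of histidyl-tRNA synthetase; the read-out is not stated. Target: Histidine-tRNA ligase, Trypanosoma cruzi CL Brener (UniProt Q4DA54). Concentration: 30 µM. Higher reads as stronger inhibition (inferred: compounds with an IC50 in retests scored well above the rest). Of about 69,000 compounds tested this way, about 31 (0.045%) reached 50% or more in at least one test.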
B: 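Histidine-tRNA ligase, Leishmania infantum (UniProt A4I591). Enzyme assay of histidyl-tRNA synthetase; the read-out is not stated. Compounds at 30 µM. The record gives no direction; compounds that gave an IC50 in retests scored well above the rest, so higher reads as stronger inhibition. The assay is labelled LdHisRS but filed under L. infantum. Of about 69,000 compounds tested this way, about 410 (0.6%) reached 50% or more in at least one test.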
C: 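Lysine-tRNA ligase, Plasmodium falciparum 3D7 (UniProt Q8IDJ8). Enzyme assay of the cytosolic lysyl-tRNA synthetase in 384-well plates, read by luminescence. Tested at 30 µM. Direction is inferred from only a few compounds that gave an IC50; most scored high, so higher reads as stronger inhibition. Of about 69,000 compounds tested this way, about 49 (0.071%) reached 50% or more in at least one test.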

Values are the deposited “Percent Effect”, in %. How 0% and 100% were set is not recorded. Most values in the screen are low, and negative values occur. The compounds are a random part of those screened.

SMILES	A	B	C
COc1ccc(-c2cnc(CN3CCn4c(C)nnc4C3)o2)cc1	-1.141%	10.4%	6.634%
O=C(Cc1ccccn1)N1CCN(C(=O)CC2CCCC2)CC1	4.373%	9.735%	-0.6638%
CC(C)N1[C@H](CN2CCCC2)C[C@@H]2CN(Cc3cnn(C)c3)CC[C@@H]21	1.227%	15.38%	-0.08181%
CNc1cc(CCNC(=O)c2cccnc2)nc(-c2ccncc2)n1	4.865%	16.67%	10.22%
CNc1nc(C(=O)N2C[C@H]3CC[C@@H]2CN(C2CCOCC2)C3)cs1	7.821%	4.167%	2.625%
Cc1nn(C)c2nc(C3CC3)c(Cl)c(C(=O)O)c12	-0.4425%	9.735%	2.334%
O=C(CC1CCCN1S(=O)(=O)N1CCCCC1)c1cccs1 (stereo unspecified)	4.124%	11.29%	0.2058%
CC(=O)N1CCCN(C(=O)c2ccc(Cn3ccccc3=O)o2)CC1	3.207%	5.505%	-1.772%
COc1ccc(Cl)cc1C(=O)N1C[C@H](C(C)C)[C@@H](N)C1	4.02%	15.29%	1.642%
COc1cccc(COCC(O)CN2CC(n3cccn3)C2)c1 (stereo unspecified)	-2.662%	31.2%	5.251%
CCOCC(=O)Nc1cc(-n2nnnc2C2CC2)ccc1F	5.419%	6.579%	4%
Cc1noc(C)c1-c1cc(CCC2CN(C(=O)CN)CCO2)ncn1 (stereo unspecified)	4.545%	2.817%	-1.429%
CC(C)(C)c1ccc(OCC(N)=O)c(CN2C[C@H]3C[C@H](O)C[C@H]3C2)c1	8.333%	17.39%	1.949%
NS(=O)(=O)c1ccc(CC(=O)N2CCCC(n3cccn3)C2)cc1 (stereo unspecified)	-0.8403%	-3.306%	-0.2624%
O=C(CC1CC1)N1CCC(O)(CN2CCN(c3ccccc3)CC2)C1 (stereo unspecified)	0.7692%	5.634%	-4.925%
CCn1nc(C)c(CN(Cc2ccccn2)Cc2ccccc2Cl)c1C	14.18%	14.29%	0.2313%
O=C1N(CC2CCCCC2)CCCC1(O)CN1CCc2[nH]ncc2C1 (stereo unspecified)	0.5525%	9.859%	6.236%
CC(C)CC(=O)NCC(O)c1c(F)cccc1F (stereo unspecified)	1.754%	14.29%	-2.23%
COc1ccc(CNCCn2c(C)nc3ccccc32)cc1O	12.02%	21.95%	4.063%
CS(=O)(=O)CCC(=O)NC(Cc1ccccc1)C1CC1 (stereo unspecified)	-4.762%	5.479%	2.259%
Cc1ccc2nc(C)c(C)c(C(=O)N3CCN(c4nccs4)CC3)c2c1	3.352%	2.083%	-2.781%
Cc1ncc(S(C)(=O)=O)c(N(C)CCCc2cnn(C)c2)n1	9.901%	14.29%	4.233%
COCCC1CCN([C@@H]2c3ccccc3C3(CCNCC3)[C@H]2O)CC1	3.863%	9.836%	2.948%
CC(C)CN1CC(c2nc(C3CC3)n[nH]2)CC1=O (stereo unspecified)	3.352%	7.292%	4.004%
Cc1cc(NC(=O)CN2CCc3c(nc(C(C)C)n3C)C2)on1	4.103%	12.24%	-3.732%
CN(CC(O)C(F)(F)F)C(=O)Nc1cccc(C(F)F)c1 (stereo unspecified)	-3.867%	1.036%	-3.332%
CSCc1cccc(S(=O)(=O)N2CCSCC2)c1	1.639%	9.709%	6.169%
CCN(CC)CCCC(C)NC(=O)c1ccccc1-n1cccn1 (stereo unspecified)	-9.639%	8%	2.788%
Cc1nnc(N2C[C@H](C(=O)NCC3CC3)[C@@H]3CCO[C@@H]3C2)s1	4.348%	2.913%	-0.951%
Cc1ccccc1C(=O)NC(C)c1cnn(C)c1 (stereo unspecified)	-4.867%	13.27%	2.186%
Cc1nnsc1C(=O)NCc1cccnc1N1CCc2ccccc2C1	4.255%	18.57%	-3.228%
Cc1nsc(NCCNS(=O)(=O)c2ccccc2)n1	5.051%	11.11%	3.535%
CC(C)Oc1ncccc1CNC(=O)c1ccco1	-1.887%	25.68%	-1.184%
Cc1nonc1CN(C)Cc1c[nH]nc1-c1ccc(F)cc1F	2.89%	8.511%	0.243%
OCCO[C@H]1C[C@@H](O)C12CCN(Cc1nc(C(F)(F)F)no1)CC2	2.488%	5.594%	0.3959%
O=C(c1cc2cc(F)ccc2[nH]1)N1CCCCC1Cn1cccn1 (stereo unspecified)	6.916%	10.71%	0.8576%
Cc1cc(CN2CCC(N(C)Cc3noc(C4CC4)n3)C2)no1 (stereo unspecified)	2.89%	20.18%	-2.831%
COc1cccc(Cl)c1-c1cc(CN)ccc1F	1.622%	11.97%	8.145%
COCCC(=O)N1CC[C@@H]2O[C@@H](C)C[C@H]2C1	4.918%	15.33%	2.8%
CN1CCN(C(=O)C2CCCN(c3cccnn3)C2)CC1 (stereo unspecified)	4.478%	-1.053%	-0.1152%
Cc1ccc(C(=O)N2CC[C@H](N3CCOCC3)[C@H](CCCO)C2)cc1O	3.279%	3.509%	3.738%
CO[C@H]1CN(C(=O)c2ccc(-c3cc[nH]n3)cc2)CC[C@H]1N	-1.948%	19.35%	2.473%
COCCn1c2c(ccc1=O)CC(NCc1cnn(C)c1)CC2 (stereo unspecified)	-3.518%	-35.64%	-0.7561%
Cc1oc(-c2nc(C#N)c(N(C)C)o2)cc1S(=O)(=O)N1CCCC1	-3.825%	9.709%	8.735%
Clc1ccccc1-c1nc(CNC2CCc3ncnn3C2)co1 (stereo unspecified)	1.149%	8.696%	-0.0741%
O=S(=O)(NCC1CCN(CCN2CCOCC2)C1)c1ccccc1F (stereo unspecified)	7.303%	7.692%	-1.05%
NC(=O)CN1CCC(NC(=O)c2ccn(-c3cccc(F)c3)n2)CC1	4.065%	14.42%	3.623%
CCc1cnc(CN2CCCC2c2noc(C3CC3)n2)o1 (stereo unspecified)	0%	40.48%	7.586%
COCC(c1cccc(C(F)(F)F)c1)N(C)C(=O)c1cc(C)n[nH]1 (stereo unspecified)	4.183%	23.2%	4.523%
COc1ccccc1CC(C)CC(=O)NC(C)C (stereo unspecified)	6.736%	7.865%	2.126%
CCCc1n[nH]c(C2CN(Cc3ncc[nH]3)CCO2)n1 (stereo unspecified)	4.545%	11.29%	1.699%
CN1CCN(S(=O)(=O)c2cccnc2)c2cnccc21	6.736%	23.66%	12.2%
CN(CC1CCC1)C(=O)c1ccc(-c2nc(C3CC3)n[nH]2)cc1	13.1%	22.22%	1.182%
COc1ccc(C(C)NCc2cscn2)cc1Cn1cccn1 (stereo unspecified)	5.319%	21.43%	5.615%
CCn1nc(C)c(C(C)NC(=O)c2cnc(N(C)C)nc2C)c1C (stereo unspecified)	13.43%	15.38%	6.38%
Cc1nn(CC(C)C)c(N(C)C)c1CNCc1ccc2c(c1)OCO2	4.046%	9.649%	0.2381%
COC(=O)CN(C(=O)c1cc(C)c(F)cc1F)c1cccc(C)n1	3.509%	5.357%	0.315%
COc1ncc(NCc2csc(-c3ccco3)n2)cc1C(N)=O	6.897%	0.8772%	5.54%
O=c1[nH]c(CCN2CCCC2Cn2cncn2)nc2ccccc12 (stereo unspecified)	3.458%	5.357%	1.279%
CCNC(=O)NC(=O)CN1CCOC(c2ccccc2Cl)C1 (stereo unspecified)	1.571%	12.07%	1.504%
Cc1noc2nc3c(c(C(=O)/N=c4\[nH]nc(C(C)C)s4)c12)CCC3	4.95%	26.09%	2.151%
Cc1csc(C(=O)N2CCC(O)(CN3CCc4ccccc4C3)C2)c1 (stereo unspecified)	9.89%	7.246%	3.857%
CC(=O)NCC(=O)N1Cc2cc(-c3cc[nH]n3)ccc2C1c1cnco1 (stereo unspecified)	-3.797%	-3.448%	-1.928%
Cn1cccc1C(=O)N1CCC2(CCN2c2ncccn2)C1 (stereo unspecified)	10%	13.21%	3.203%
NC(=O)CCC1CCCN(Cc2cnc(N3CCCCC3)nc2)C1 (stereo unspecified)	6.03%	15.29%	3.04%
COc1cccc2c(=O)n(Cc3cccnc3)cnc12	2.404%	17.07%	3.562%
Cc1nnc(CN2CCCC2c2ccc3c(c2)OCCCO3)n1C (stereo unspecified)	5.102%	14.52%	5.687%
O=C1CCC2(CCCN(CCc3ccccc3)C2)N1Cc1cccnc1 (stereo unspecified)	5.263%	19.51%	6.782%
Cc1ncncc1C(=O)N1CCCC1c1c(C)nn(C)c1Cl (stereo unspecified)	2.006%	3.509%	0.7576%
O=C1NC(=O)c2c3c(nc(O)c21)CCCC3	10.4%	12.37%	6.346%
O=C(NCC1CCCO1)c1coc(Cn2cnc3ccccc32)n1 (stereo unspecified)	4.217%	4.396%	0.5343%
c1ccc(-c2nnc([C@H]3CCN(C4CCOCC4)C3)o2)cc1	5.435%	17.57%	7.995%

Once more, the final 4:

* Cc1ncncc1C(=O)N1CCCC1c1c(C)nn(C)c1Cl (stereo unspecified) : A: 2.006%; B: 3.509%; C: 0.7576%
* O=C1NC(=O)c2c3c(nc(O)c21)CCCC3 : A: 10.4%; B: 12.37%; C: 6.346%
* O=C(NCC1CCCO1)c1coc(Cn2cnc3ccccc32)n1 (stereo unspecified) : A: 4.217%; B: 4.396%; C: 0.5343%
* c1ccc(-c2nnc([C@H]3CCN(C4CCOCC4)C3)o2)cc1 : A: 5.435%; B: 17.57%; C: 7.995%

Source: ChEMBL document CHEMBL3988442, “University of Dundee, Small-Polar-MMV Screening Library” (2021).